Holding throughout (conditions): stereoisomer not certain
In one test the test system is T1, OR6J1.
T1 sequence (whole entry): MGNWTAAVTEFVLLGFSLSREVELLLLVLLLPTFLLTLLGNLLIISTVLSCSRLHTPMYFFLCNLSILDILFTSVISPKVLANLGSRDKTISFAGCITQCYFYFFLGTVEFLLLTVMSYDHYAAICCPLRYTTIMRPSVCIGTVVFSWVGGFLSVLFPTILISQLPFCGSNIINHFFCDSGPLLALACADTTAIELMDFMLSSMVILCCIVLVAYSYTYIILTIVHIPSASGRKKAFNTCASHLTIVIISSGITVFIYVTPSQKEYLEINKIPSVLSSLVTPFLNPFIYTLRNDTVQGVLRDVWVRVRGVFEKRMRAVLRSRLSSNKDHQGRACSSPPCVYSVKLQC
An outline of the steps:
(§1)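 Each receptor–molecule pair is labelled responsive or non-responsive (inactive) according to whether the original authors judged the measured signal statistically different from baseline. The data were taken from the main text and supplementary material of published papers and checked for typos and inconsistencies. Assay methods differed by source, with transient luciferase assays in mammalian cell lines being common.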

A further test addresses T2, OR6K2 (Homo sapiens) (UniProt Q8NGY2).
T2 sequence (whole entry): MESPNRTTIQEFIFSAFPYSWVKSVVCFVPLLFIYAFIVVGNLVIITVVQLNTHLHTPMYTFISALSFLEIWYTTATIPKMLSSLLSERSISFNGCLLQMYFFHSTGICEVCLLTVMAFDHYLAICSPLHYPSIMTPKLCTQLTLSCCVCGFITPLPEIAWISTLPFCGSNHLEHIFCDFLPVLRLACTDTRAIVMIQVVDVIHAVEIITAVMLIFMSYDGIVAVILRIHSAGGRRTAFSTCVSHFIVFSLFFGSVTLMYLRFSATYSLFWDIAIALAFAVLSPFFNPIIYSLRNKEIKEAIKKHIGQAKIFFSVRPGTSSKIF
In short, it runs like this: as §1

Test [1] has as its system T3, OR6K3.
T3 sequence (whole entry): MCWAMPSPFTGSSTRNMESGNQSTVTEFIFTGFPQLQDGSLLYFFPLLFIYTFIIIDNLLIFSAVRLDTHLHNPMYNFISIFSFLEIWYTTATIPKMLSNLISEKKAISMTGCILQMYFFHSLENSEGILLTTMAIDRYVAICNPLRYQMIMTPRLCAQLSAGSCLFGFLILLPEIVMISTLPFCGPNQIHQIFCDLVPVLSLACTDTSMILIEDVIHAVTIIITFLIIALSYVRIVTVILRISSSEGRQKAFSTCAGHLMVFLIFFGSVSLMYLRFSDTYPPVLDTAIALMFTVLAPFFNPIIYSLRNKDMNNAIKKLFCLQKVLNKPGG
An outline of the steps: as §1

Test [2] deals with T4, OR6K3.
T4 sequence (whole entry): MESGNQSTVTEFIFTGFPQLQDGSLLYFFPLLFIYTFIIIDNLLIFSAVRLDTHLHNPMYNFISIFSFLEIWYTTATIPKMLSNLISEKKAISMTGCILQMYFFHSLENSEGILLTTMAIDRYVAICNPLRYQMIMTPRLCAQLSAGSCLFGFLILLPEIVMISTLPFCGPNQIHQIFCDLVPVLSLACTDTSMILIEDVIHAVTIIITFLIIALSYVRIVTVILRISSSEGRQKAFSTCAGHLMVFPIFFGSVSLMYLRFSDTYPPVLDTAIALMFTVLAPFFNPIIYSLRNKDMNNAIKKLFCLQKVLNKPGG
In short, it runs like this:
as §1
This is another data set of the same source.

The test system of test [3] is T5, OR6K6.
T5 sequence (whole entry): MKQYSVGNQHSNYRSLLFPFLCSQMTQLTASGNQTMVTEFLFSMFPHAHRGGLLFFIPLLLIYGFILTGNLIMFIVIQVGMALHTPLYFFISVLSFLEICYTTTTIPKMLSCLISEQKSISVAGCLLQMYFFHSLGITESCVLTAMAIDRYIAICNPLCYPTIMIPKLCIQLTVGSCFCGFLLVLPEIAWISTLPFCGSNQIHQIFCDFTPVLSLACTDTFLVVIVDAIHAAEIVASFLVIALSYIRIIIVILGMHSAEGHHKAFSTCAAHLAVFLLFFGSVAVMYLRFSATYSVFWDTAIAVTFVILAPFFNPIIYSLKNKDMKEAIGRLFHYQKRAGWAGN
An outline of the steps:
as §1

In test [4] the test system is T6, OR6K6.
T6 sequence (whole entry): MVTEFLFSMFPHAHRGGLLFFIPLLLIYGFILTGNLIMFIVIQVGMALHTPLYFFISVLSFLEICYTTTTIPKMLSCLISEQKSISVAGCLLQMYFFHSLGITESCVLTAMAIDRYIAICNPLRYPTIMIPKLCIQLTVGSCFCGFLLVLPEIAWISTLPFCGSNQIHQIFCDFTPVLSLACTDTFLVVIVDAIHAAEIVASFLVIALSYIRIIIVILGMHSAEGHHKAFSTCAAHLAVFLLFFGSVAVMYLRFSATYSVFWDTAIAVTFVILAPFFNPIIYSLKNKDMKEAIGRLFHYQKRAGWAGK
An outline of the steps: as §1
This is another data set of the same source.

Another test concerns the target T7, OR6M1 (Homo sapiens) (UniProt Q8NGM8).
T7 sequence (whole entry): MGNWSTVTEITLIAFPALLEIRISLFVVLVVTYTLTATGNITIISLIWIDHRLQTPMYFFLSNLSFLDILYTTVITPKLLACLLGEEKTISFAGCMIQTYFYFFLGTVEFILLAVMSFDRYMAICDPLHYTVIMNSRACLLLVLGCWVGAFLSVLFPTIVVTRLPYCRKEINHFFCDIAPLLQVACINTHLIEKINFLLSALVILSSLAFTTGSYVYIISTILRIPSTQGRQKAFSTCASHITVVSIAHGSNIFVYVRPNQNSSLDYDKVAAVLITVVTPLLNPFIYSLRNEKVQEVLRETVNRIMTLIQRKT
In short, it runs like this:
as §1

Another test has as its system T8, OR6N1.
T8 sequence (whole entry): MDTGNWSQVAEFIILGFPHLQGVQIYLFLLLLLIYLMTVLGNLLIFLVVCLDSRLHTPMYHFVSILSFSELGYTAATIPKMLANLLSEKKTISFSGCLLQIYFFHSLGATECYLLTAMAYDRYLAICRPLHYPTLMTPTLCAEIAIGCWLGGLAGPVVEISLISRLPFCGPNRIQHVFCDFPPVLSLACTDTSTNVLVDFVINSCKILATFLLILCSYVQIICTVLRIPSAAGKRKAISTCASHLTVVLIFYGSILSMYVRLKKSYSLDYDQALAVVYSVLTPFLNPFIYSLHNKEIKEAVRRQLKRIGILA
In short, it runs like this:
as §1

A further test addresses T9, OR6N2 (Homo sapiens) (UniProt Q8NGY6).
T9 sequence (whole entry): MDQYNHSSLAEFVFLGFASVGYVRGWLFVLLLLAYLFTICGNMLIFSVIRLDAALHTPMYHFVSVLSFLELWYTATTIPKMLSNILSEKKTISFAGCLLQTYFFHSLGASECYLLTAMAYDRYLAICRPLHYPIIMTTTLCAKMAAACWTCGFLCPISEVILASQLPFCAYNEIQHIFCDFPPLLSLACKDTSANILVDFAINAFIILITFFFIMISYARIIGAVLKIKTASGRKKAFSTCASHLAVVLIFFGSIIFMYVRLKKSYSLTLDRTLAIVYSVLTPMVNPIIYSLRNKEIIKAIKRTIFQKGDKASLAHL
An outline of the steps: as §1

A further test has as its target T10, OR6P1 (Homo sapiens) (UniProt Q8NGX9).
T10 sequence (whole entry): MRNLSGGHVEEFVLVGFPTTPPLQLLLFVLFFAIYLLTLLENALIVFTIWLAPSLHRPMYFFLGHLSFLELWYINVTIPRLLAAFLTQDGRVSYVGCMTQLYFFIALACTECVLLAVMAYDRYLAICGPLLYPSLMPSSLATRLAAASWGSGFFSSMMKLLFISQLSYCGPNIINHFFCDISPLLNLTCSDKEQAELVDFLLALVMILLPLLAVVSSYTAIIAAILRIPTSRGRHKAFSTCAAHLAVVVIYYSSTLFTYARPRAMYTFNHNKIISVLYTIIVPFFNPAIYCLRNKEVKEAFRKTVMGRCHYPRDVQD
An outline of the steps:
as §1

The target in another test is T11, OR6Q1 (Homo sapiens) (UniProt Q8NGQ2).
T11 sequence (whole entry): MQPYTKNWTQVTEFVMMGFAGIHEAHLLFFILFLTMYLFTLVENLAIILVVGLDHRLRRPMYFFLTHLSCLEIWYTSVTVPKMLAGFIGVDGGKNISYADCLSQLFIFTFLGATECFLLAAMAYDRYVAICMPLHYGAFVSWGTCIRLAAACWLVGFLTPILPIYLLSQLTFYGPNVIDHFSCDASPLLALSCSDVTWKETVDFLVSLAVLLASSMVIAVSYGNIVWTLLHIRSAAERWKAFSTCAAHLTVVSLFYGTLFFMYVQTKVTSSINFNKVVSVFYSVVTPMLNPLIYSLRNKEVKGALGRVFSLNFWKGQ
An outline of the steps:
as §1

Another test has as its system T12, OR6S1.
T12 sequence (whole entry): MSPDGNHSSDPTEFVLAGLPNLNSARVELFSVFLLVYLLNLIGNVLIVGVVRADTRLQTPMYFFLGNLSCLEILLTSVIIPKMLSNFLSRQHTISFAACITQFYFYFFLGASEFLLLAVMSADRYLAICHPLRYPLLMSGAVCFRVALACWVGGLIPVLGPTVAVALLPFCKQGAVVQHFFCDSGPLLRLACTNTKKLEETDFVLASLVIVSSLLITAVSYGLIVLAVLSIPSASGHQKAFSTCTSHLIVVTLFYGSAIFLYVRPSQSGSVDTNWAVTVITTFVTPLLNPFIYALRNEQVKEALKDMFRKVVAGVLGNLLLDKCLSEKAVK
In short, it runs like this: as §1

For the next test, the system named is T13, OR6T1.
T13 sequence (whole entry): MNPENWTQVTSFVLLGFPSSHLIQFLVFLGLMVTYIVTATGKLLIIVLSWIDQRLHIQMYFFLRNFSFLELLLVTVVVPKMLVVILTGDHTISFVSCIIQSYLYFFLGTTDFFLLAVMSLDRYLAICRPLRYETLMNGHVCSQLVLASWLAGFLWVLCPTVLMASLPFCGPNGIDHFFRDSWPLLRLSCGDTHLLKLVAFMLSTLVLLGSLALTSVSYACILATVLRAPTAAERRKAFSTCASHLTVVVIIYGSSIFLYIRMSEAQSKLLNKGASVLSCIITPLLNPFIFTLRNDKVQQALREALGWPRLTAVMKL
An outline of the steps:
as §1

Each structure is given as a SMILES string. Only a part is listed here, and it is no random draw. Calls are pooled over several reports, among them a noisy single-well screen. This is one part of the list.
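Further: active if original authors judged signal statistically different from baseline.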

Consider `O=CCc1ccccc1`, for which the “odorant receptor agonist call” value in the test on OR6J1, with OR6K2 (Homo sapiens), in the test with OR6K3 [1], with OR6K3 [2], with OR6K6 [3] and in the test on OR6K6 [4] was “inactive” each time. Besides, the “odorant receptor agonist call” value with OR6M1 (Homo sapiens), in the test on OR6N1, with OR6N2 (Homo sapiens), with OR6Q1 (Homo sapiens), in the test with OR6S1 and with OR6T1 was “inactive” in each case. The “odorant receptor agonist call” value with OR6P1 (Homo sapiens) was “active”.
Regarding `CC(C)CC(=O)O`, the “odorant receptor agonist call” value with OR6J1, with OR6K2 (Homo sapiens), in the test with OR6K3 [1], in the test on OR6K3 [2], in the test with OR6K6 [3] and in the test with OR6K6 [4] was “inactive” throughout. Moreover, the “odorant receptor agonist call” value with OR6M1 (Homo sapiens), in the test with OR6N1, with OR6N2 (Homo sapiens), with OR6P1 (Homo sapiens), with OR6Q1 (Homo sapiens) and in the test with OR6S1 was “inactive” throughout. The “odorant receptor agonist call” value with OR6T1 is “inactive”.
Take `COC(=O)c1ccccc1O`: the “odorant receptor agonist call” value in the test on OR6J1, in the test with OR6K2 (Homo sapiens), with OR6K3 [1], in the test with OR6K3 [2], with OR6K6 [3] and with OR6K6 [4] was “inactive” each time. The “odorant receptor agonist call” value in the test with OR6M1 (Homo sapiens), in the test with OR6N1, with OR6N2 (Homo sapiens), in the test with OR6P1 (Homo sapiens), with OR6Q1 (Homo sapiens) and with OR6S1 was “inactive” each time. Besides, in the test on OR6T1, the “odorant receptor agonist call” value is “inactive”.
`CC(C)CCC(=O)O`: the “odorant receptor agonist call” value in the test with OR6J1, in the test with OR6K2 (Homo sapiens), in the test on OR6K3 [1], in the test with OR6K3 [2], in the test with OR6K6 [3] and with OR6K6 [4] was “inactive” in each case. Besides, the “odorant receptor agonist call” value with OR6M1 (Homo sapiens), in the test with OR6N1, with OR6N2 (Homo sapiens), with OR6P1 (Homo sapiens), in the test with OR6Q1 (Homo sapiens) and in the test with OR6S1 was “inactive” each time. In the test on OR6T1, the “odorant receptor agonist call” value was “inactive”.
Regarding `CC1COCc2cc3c(cc21)C(C)(C)C(C)C3(C)C` (stereo not drawn), the “odorant receptor agonist call” value with OR6J1, with OR6K2 (Homo sapiens), in the test with OR6K3 [1], in the test on OR6K3 [2], with OR6K6 [3] and in the test on OR6K6 [4] was “active” throughout. Besides, the “odorant receptor agonist call” value with OR6M1 (Homo sapiens), in the test on OR6N1, with OR6N2 (Homo sapiens) and in the test with OR6S1 was “active” each time. For the same compound, the “odorant receptor agonist call” value in the test with OR6P1 (Homo sapiens), in the test with OR6Q1 (Homo sapiens) and in the test on OR6T1 was “inactive” throughout.
`COc1cc(C)ccc1O`: the “odorant receptor agonist call” value in the test on OR6J1, with OR6K2 (Homo sapiens), in the test with OR6K3 [1], in the test with OR6K3 [2], in the test with OR6K6 [3] and in the test with OR6K6 [4] was “inactive” in each case. In addition, the “odorant receptor agonist call” value in the test with OR6M1 (Homo sapiens), in the test with OR6N1, in the test with OR6N2 (Homo sapiens), with OR6P1 (Homo sapiens), in the test with OR6Q1 (Homo sapiens) and in the test on OR6S1 was “inactive” in each case. In addition, in the test on OR6T1, the “odorant receptor agonist call” value is “inactive”.

For the origin of these results see the M2OR odorant receptor database.
